Test results taken from publication PMC9767379, “Homologous chromosomes are stably conjoined for Drosophila male meiosis I by SUM, a multimerized protein assembly with modules for DNA-binding and for separase-mediated dissociation co-opted from cohesin” (PLOS Genetics, 2022).
Results are given in words; binding and its absence hold for the method and conditions named. In cells and extracts the contact can be indirect. For part of these data: Binding can be weak; no strength is given.

Key:
[1] = target: T1, Mod(mdg4)_T-mCherry (D. melanogaster) (UniProt Q86B87); assay: co-IP; transient co-expression of three or four proteins (SNM, UNO or a UNO fragment, MNM or a Mod(mdg4) variant, TEF) in Drosophila S2R+ cells; GFP-Trap, RFP-Trap or MYC-Trap agarose beads, 1 hour at 4°C; lysis buffer 20 mM Tris-HCl pH 7.5, 300 mM NaCl, 0.1% Nonidet P-40 Substitute, Benzonase; immunoblotting
T1 sequence: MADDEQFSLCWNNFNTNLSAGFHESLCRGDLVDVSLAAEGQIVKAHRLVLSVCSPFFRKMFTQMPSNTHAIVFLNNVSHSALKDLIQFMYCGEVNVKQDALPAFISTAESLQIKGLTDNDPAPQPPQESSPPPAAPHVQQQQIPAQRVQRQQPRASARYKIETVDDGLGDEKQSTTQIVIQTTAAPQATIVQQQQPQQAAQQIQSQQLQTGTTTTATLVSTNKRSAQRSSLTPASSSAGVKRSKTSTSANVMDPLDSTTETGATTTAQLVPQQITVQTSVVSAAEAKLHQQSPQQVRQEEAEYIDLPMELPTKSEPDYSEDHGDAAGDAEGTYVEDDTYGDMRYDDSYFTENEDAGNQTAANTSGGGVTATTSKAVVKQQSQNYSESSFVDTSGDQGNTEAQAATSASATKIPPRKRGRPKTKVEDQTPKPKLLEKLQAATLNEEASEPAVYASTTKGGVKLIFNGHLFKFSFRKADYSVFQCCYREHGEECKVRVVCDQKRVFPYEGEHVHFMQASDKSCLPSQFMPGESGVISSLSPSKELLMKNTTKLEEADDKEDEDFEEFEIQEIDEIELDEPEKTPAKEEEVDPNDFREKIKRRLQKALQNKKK

[2] = target: T1, Mod(mdg4)_T-mCherry (D. melanogaster); assay: co-IP; transient co-expression of two proteins in Drosophila S2R+ cells; GFP-Trap, RFP-Trap or MYC-Trap agarose beads, 1 hour at 4°C; lysis buffer 20 mM Tris-HCl pH 7.5, 300 mM NaCl, 0.1% Nonidet P-40 Substitute, Benzonase; immunoblotting

Row | Substance | binding [1] | binding [2]
1 | SNM-EGFP (D. melanogaster) | no binding | –
2 | UNO-myc (D. melanogaster) | no binding | –
3 | MNM-EGFP (D. melanogaster) | – | binds
